T1: human leucine-rich alpha-2-glycoprotein-1 (LRG) (human, UniProt P02750 36-347, one galactosamine and four glucosamine oligosaccharides attached; two intrachain disulfide bonds)
T1 construct: Purified from human serum or plasma by adsorption on horse Cyt c-Affi-Gel 10; The leader is boxed in a drawing that is not readable; also called human LRG
T1 sequence: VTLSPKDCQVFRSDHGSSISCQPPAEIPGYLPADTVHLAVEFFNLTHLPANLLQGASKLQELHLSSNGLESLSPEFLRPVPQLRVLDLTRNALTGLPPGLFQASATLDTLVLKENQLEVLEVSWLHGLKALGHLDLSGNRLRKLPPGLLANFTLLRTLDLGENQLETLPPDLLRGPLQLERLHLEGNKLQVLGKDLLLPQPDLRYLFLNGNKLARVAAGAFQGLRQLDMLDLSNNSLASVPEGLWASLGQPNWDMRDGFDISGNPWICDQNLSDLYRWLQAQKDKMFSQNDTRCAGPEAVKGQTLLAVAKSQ

B1: human Cytochrome c (Cyt c) (other)
chain: GDVEKGKKIFIMKCSQCHTVEKGGKHKTGPNLHGLFGRKTGQAPGYSYTAANKNKGIIWGEDTLMEYLENPKKYIPGTKMIFVGIKKKEERADLIAYLKKATNE
modifications: acetylated amino terminal glycine; heme prosthetic group bound through cysteines at positions 14 and 17 of the mature protein (15 and 18 of SEQ ID NO: 4)
notes: Obtained from R & D Systems; The mature form lacks the leading methionine and has 104 residues; also called human Cyt c
B2: horse Cytochrome c (Cyt c) (other, UniProt P00004 2-105, looked up)
chain: GDVEKGKKIFVQKCAQCHTVEKGGKHKTGPNLHGLFGRKTGQAPGFTYTDANKNKGITWKEETLMEYLENPKKYIPGTKMIFAGIKKKTEREDLIAYLKKATNE
notes: Used coupled to Affi-Gel 10, adsorbed to microtiter plates, and in solution; also called horse Cyt c; Cyt c-Affi-Gel 10
B3: pigeon Cytochrome c (Cyt c) (other, UniProt P00021 2-105, looked up)
chain: GDIEKGKKIFVQKCSQCHTVEKGGKHKTGPNLHGLFGRKTGQAEGFSYTDANKNKGITWGEDTLMEYLENPKKYIPGTKMIFAGIKKKAERADLIAYLKQATAK
notes: also called a bird (pigeon) Cyt c

Target: T1, human leucine-rich …
Test: Competitive ELISA: solution Cyt c competes with plate-bound horse Cyt c for human LRG
Protocol: Horse Cyt c was adsorbed to a microtiter plate and increasing concentrations of Cyt c from various species present in the solution phase were allowed to compete with the plate-bound Cyt c for human LRG binding. Otherwise, the assay was performed in accordance with the procedures described in Example 1.

Binder | binding result
B1 | binds
B2 | binds
B3 | binds
